From article doi:10.1101/826875
No constants are given. Whether binding was seen depends on the method and setting. In cells and extracts the contact can be indirect. Some results given as binding are weak or reduced against the parent protein; the word gives no strength.

The chains behind the UniProt entries cited, without tags or fusion partners.
UniProt Q62296: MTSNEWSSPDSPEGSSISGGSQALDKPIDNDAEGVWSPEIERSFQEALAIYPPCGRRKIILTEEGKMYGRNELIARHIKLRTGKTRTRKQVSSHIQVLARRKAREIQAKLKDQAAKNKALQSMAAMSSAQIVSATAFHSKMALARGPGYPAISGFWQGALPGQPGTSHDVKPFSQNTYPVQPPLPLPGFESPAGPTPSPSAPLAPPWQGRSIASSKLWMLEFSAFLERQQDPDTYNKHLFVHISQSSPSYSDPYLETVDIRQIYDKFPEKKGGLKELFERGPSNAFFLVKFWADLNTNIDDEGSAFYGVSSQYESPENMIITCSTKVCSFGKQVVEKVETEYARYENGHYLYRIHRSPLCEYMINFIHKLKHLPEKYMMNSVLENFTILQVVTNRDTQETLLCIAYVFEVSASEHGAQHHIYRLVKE
UniProt Q61312: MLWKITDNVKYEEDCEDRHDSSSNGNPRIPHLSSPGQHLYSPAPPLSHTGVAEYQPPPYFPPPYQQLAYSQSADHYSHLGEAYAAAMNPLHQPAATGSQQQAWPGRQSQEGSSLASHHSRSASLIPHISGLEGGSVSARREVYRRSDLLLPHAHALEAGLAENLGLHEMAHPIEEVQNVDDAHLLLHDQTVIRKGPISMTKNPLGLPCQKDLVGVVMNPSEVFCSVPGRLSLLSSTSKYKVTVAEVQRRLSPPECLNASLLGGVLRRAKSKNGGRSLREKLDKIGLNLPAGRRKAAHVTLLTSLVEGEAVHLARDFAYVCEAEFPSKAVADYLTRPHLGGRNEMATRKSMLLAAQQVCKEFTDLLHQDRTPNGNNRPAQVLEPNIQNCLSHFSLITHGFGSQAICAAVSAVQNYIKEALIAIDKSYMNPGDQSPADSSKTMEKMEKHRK
UniProt P46938: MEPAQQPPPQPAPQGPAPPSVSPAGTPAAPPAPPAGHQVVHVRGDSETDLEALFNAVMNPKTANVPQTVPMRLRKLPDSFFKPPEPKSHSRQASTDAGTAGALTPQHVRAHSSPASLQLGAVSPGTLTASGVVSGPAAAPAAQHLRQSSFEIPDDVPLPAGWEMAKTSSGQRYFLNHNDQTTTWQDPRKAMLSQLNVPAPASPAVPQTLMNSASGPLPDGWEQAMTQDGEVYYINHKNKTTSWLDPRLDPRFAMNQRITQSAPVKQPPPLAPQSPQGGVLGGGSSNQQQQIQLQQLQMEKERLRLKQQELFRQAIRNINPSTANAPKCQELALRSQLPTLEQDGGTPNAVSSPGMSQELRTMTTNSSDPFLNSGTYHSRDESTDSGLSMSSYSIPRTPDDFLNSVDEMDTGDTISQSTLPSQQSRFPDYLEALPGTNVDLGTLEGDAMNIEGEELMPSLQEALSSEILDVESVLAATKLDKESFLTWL

Key:
Test in all cases: co-IP
Myc-TEAD4 = Myc-TEAD4 (UniProt Q62296)
GFP-AP-2γ = GFP-AP-2γ (UniProt Q61312)
Flag-YAP1 = Flag-YAP1 (UniProt P46938)

Substance: Flag-YAP1 (from UniProt P46938 1-488)
- binding (Myc-TEAD4): binds
- binding (GFP-AP-2γ): binds

Substance: Myc-TEAD4 (from UniProt Q62296 1-427)
- binding (GFP-AP-2γ): binds
- binding (Flag-YAP1): binds

Substance: GFP-AP-2γ (from UniProt Q61312 1-449)
- binding (Myc-TEAD4): binds
- binding (Flag-YAP1): binds
